Data as given in PubChem BioAssay AID1224828 (NIAID, 2016).
Test: 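Regulators linking TLR4 signalling to p65 nuclear translocation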 (primary screen). Cells: mouse RAW264.7 G9 macrophage reporter cells (GFP-p65, Tnf promoter-mCherry). Reagent: siRNA pool against mouse genes, 100 nM. Duration: 2 days siRNA transfection, then 40 min LPS before fixation. Challenge: LPS (Salmonella minnesota R595) at 10 ng/ml. Measurement: 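Imaged p65 nuclear translocation ratio, normalised to the plate median, converted to robust z-scores and averaged across two replicates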. Scale: p65 translocation robust z-score: higher = more nuclear NF-kappaB p65 after LPS than the plate median; nuclear/cytoplasmic p65 ratio: higher = more nuclear NF-kappaB p65. Hit rule: 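Active if robust z is above 3.3 (negative regulators) or below -1.56, the Tlr4 control median (positive regulators); activity score 50 or more; control wells not called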. Calls: active = hit (p65 shift raised or lowered); inactive = no clear change.
Shown is one part, drawn at random, of about 17,000 reagents. 762 of them (4.5%) count as active. 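Active calls include both raised and lowered p65 entry, mostly lowered; wells with fewer than 50 cells lack a z-score.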 The raw values are shown without normalisation. Reagents against one gene are numbered here.

| Target gene | reagent no. | p65 translocation robust z-score | nuclear/cytoplasmic p65 ratio, rep 1 | nuclear/cytoplasmic p65 ratio, rep 2 | low cell count flag | Outcome |
| --- | --- | --- | --- | --- | --- | --- |
| Cd99l2 | 1 | -1.61 | 1.45 | 1.32 | enough cells to score | active |
| Mark1 | 1 | -1.19 | 1.5 | 1.23 | enough cells to score | inactive |
| Ago1 | 1 | -0.16 | 1.5 | 1.29 | enough cells to score | inactive |
| Cnpy3 | 1 | -2.27 | 1.27 | 1.12 | enough cells to score | active |
| B4galnt1 | 1 | 1.37 | 1.51 | 1.64 | enough cells to score | inactive |
| Clps | 1 | 0.07 | 1.58 | 1.82 | enough cells to score | inactive |
| Kdm4b | 1 | – | 1.32 | 0.996 | fewer than 50 cells per well; well left out of scoring | inactive |
| Ogn | 1 | 0.51 | 1.74 | 1.65 | enough cells to score | inactive |
| Gamt | 1 | 0.04 | 1.45 | 1.36 | enough cells to score | inactive |
| Pla2g4e | 1 | -1.01 | 1.22 | 1.2 | enough cells to score | inactive |
| Mrpl28 | 1 | -0.19 | 1.44 | 1.32 | enough cells to score | inactive |
| Nans | 1 | -0.86 | 1.64 | 1.46 | enough cells to score | inactive |
| Gnb3 | 1 | 1.47 | 1.74 | 1.77 | enough cells to score | inactive |
| Csf3r | 1 | -0.96 | 1.34 | 1.26 | enough cells to score | inactive |
| Letm1 | 1 | 2.58 | 2.12 | 1.92 | enough cells to score | inactive |
| Ugt2a1 | 1 | 0.28 | 1.37 | 1.26 | enough cells to score | inactive |
| Rps28 | 1 | 1.1 | 1.57 | 1.28 | enough cells to score | inactive |
| Spice1 | 1 | 0.91 | 1.65 | 1.73 | enough cells to score | inactive |
| Anpep | 1 | -0.35 | 1.61 | 1.53 | enough cells to score | inactive |
| Or6c202 | 1 | -0.8 | 1.33 | 1.08 | enough cells to score | inactive |
| Slc68a1 | 1 | -0.14 | 1.26 | 1.28 | enough cells to score | inactive |
| Ap3d1 | 1 | -0.25 | 1.22 | 1.67 | enough cells to score | inactive |
| Hs6st2 | 1 | -0.45 | 1.65 | 1.42 | enough cells to score | inactive |
| Coa7 | 1 | – | 1.36 | 1.48 | fewer than 50 cells per well; well left out of scoring | inactive |
| Sacm1l | 1 | 0.24 | 1.45 | 1.22 | enough cells to score | inactive |
| Mxi1 | 1 | -0.88 | 1.3 | 1.26 | enough cells to score | inactive |
| Phc2 | 1 | 0.32 | 1.59 | 1.41 | enough cells to score | inactive |
| Calhm6 | 1 | 2.26 | 1.73 | 1.78 | enough cells to score | inactive |
| Il17d | 1 | -1.74 | 1.26 | 1.24 | enough cells to score | active |
| Aqp3 | 1 | -1.11 | 1.44 | 1.46 | enough cells to score | inactive |
| Cyp19a1 | 1 | 1.32 | 1.73 | 1.48 | enough cells to score | inactive |
| Slc1a3 | 1 | -1.08 | 1.33 | 1.13 | enough cells to score | inactive |
| Rps19 | 1 | -1.12 | 1.25 | 1.11 | enough cells to score | inactive |

A few values from the list.
For “nuclear/cytoplasmic p65 ratio, rep 1”, Cyp19a1 shows 1.73
Under “p65 translocation robust z-score”, Or6c202 reads -0.8
For “nuclear/cytoplasmic p65 ratio, rep 2”, Kdm4b has 0.996
For “nuclear/cytoplasmic p65 ratio, rep 2”, Ugt2a1 reads 1.26
Cd99l2, Outcome = active
Result for Rps28 under “low cell count flag”: enough cells to score

Further records:
| Target gene | reagent no. | p65 translocation robust z-score | nuclear/cytoplasmic p65 ratio, rep 1 | nuclear/cytoplasmic p65 ratio, rep 2 | low cell count flag | Outcome |
| --- | --- | --- | --- | --- | --- | --- |
| Vmn1r43 | 1 | – | 1.26 | 1.2 | fewer than 50 cells per well; well left out of scoring | inactive |
| Pcdha12 | 1 | 0.32 | 1.56 | 1.21 | enough cells to score | inactive |
| Ndufv2 | 1 | 0.89 | 1.52 | 1.49 | enough cells to score | inactive |
| Cst5 | 1 | -0.47 | 1.63 | 1.56 | enough cells to score | inactive |
| Cyp2d9 | 1 | -1 | 1.41 | 1.62 | enough cells to score | inactive |
| Trem5 | 1 | – | 1.44 | 1.5 | fewer than 50 cells per well; well left out of scoring | inactive |
| Acot13 | 1 | -0.49 | 1.35 | 1.1 | enough cells to score | inactive |
| Tmem220 | 1 | -0.6 | 1.4 | 1.44 | enough cells to score | inactive |
| Elk4 | 1 | 0.27 | 1.45 | 1.45 | enough cells to score | inactive |
| Pdlim3 | 1 | -1.06 | 1.27 | 1.14 | enough cells to score | inactive |
| Tvp23b | 1 | 0.06 | 1.37 | 1.36 | enough cells to score | inactive |
| Hoxd4 | 1 | 0.37 | 1.46 | 1.45 | enough cells to score | inactive |
| Tm6sf1 | 1 | -0.85 | 1.24 | 1.12 | enough cells to score | inactive |
| Dynlt5 | 1 | 1.19 | 1.49 | 1.63 | enough cells to score | inactive |
| Pgm2l1 | 1 | -0.72 | 1.29 | 1.2 | enough cells to score | inactive |
| Alad | 1 | 0.61 | 1.7 | 1.72 | enough cells to score | inactive |
| Gpt | 1 | 1.35 | 1.76 | 1.82 | enough cells to score | inactive |
| Mtnap1 | 1 | -1.33 | 1.36 | 1.59 | enough cells to score | inactive |
| Armcx3 | 1 | 0.76 | 1.78 | 1.56 | enough cells to score | inactive |
| Pafah1b2 | 1 | -1.16 | 1.31 | 1.24 | enough cells to score | inactive |
| Cldn15 | 1 | -0.06 | 1.51 | 1.85 | enough cells to score | inactive |
| Irgq | 1 | 0.19 | 1.55 | 1.8 | enough cells to score | inactive |
| Top3a | 1 | 1.09 | 1.65 | 1.7 | enough cells to score | inactive |
| Usp24 | 1 | 0.39 | 1.63 | 1.71 | enough cells to score | inactive |
| Vwa5b2 | 1 | 0.15 | 1.5 | 1.55 | enough cells to score | inactive |
| Vwa5b2 | 2 | -0.43 | 1.79 | 1.36 | enough cells to score | inactive |
